Results as given in US20240067683A1, “USE OF MCM8-CGAS-STING-IFN-I SIGNAL PATHWAY AS DISEASE TARGET” (Guangzhou Women and Children's Medical Center, priority 2020, published 2024).
Some entries share one result that the patent states for a list of compounds.

Tested on: IFN-β
Experiment: IFN-β mRNA level by Q-PCR in 293T cells overexpressing MCM8 or its mutants, stimulated with poly(dA:dT)
Format: cell-based
Settings: 200 ng overexpressed, poly(dA:dT) 24 h
Experimental: Besides the previously found A276P and S365N mutations, the inventors found other point mutations related to Kawasaki disease, namely, S280C mutation and S764A mutation, and further conducted cloning and cell experiments, comprising the steps of using 293T cells to separately overexpress 200 ng MCM8, and each of mutants, namely, MCM8 (A276P), MCM8 (S280C), MCM8 (S365N) and MCM8 (S764A); and 24 hours after transfection, stimulating the cells with poly(dA:dT) for 0, 12 and 24 h, collecting RNA, and detecting the mRNA level of IFN-β by Q-PCR. […] Therefore, it can be further considered that the previously found mutations A276P and S365N in MCM8 are both mutation factors that affect the function of MCM8 in regulating IFN-I and lead to Kawasaki disease, while the mutations S280C and S764A are also newly discovered mutations in systemic vasculitis such as Kawasaki disease. These two mutations may be used to diagnose or assist in the diagnosis of Kawasaki disease and systemic vasculitis diseases similar to Kawasaki disease (e.g., systemic lupus erythematosus).

Molecule	IFN-β level (mRNA, Q-PCR)
MCM8 (A276P): MCM8 with point mutation A276P in the LIR motif, found in Kawasaki disease patients (protein) MNGEYRGRGFGRGRFQSWKRGRGGGNFSGKWREREHRPDLSKTTGKRTSEQTPQFLLSTKTPQSMQSTLDRFIPYKGWKLYFSEVYSDSSPLIEKIQAFEKFFTRHIDLYDKDEIERKGSILVDFKELTEGGEVTNLIPDIATELRDAPEKTLACMGLAIHQVLTKDLERHAAELQAQEGLSNDGETMVNVPHIHARVYNYEPLTQLKNVRANYYGKYIALRGTVVRVSNIKPLCTKMAFLCAACGEIQSFPLPDGKYSLPTKCPVPVCRGRSFTPLRSSPLTVTMDWQSIKIQELMSDDQREAGRIPRTIECELVHDLVDSCVPGDTVTITGIVKVSNAEEGSRNKNDKCMFLLYIEANSISNSKGQKTKSSEDGCKHGMLMEFSLKDLYAIQEIQAEENLFKLIVNSLCPVIFGHELVKAGLALALFGGSQKYADDKNRIPIRGDPHILVVGDPGLGKSQMLQAACNVAPRGVYVCGNTTTTSGLTVTLSKDSSSGDFALEAGALVLGDQGICGIDEFDKMGNQHQALLEAMEQQSISLAKAGVVCSLPARTSIIAAANPVGGHYNKAKTVSENLKMGSALLSRFDLVFILLDTPNEHHDHLLSEHVIAIRAGKQRTISSATVARMNSQDSNTSVLEVVSEKPLSERLKVVPGETIDPIPHQLLRKYIGYARQYVYPRLSTEAARVLQDFYLELRKQSQRLNSSPITTRQLESLIRLTEARARLELREEATKEDAEDIVEIMKYSMLGTYSDEFGNLDFERSQHGSGMSNRSTAKRFISALNNVAERTYNNIFQFHQLRQIAKELNIQVADFENFIGSLNDQGYLLKKGPKVYQLQTM	more than 300
MCM8 (S764A): MCM8 with point mutation S764A (protein, listed as Homo sapiens) MNGEYRGRGFGRGRFQSWKRGRGGGNFSGKWREREHRPDLSKTTGKRTSEQTPQFLLSTKTPQSMQSTLDRFIPYKGWKLYFSEVYSDSSPLIEKIQAFEKFFTRHIDLYDKDEIERKGSILVDFKELTEGGEVTNLIPDIATELRDAPEKTLACMGLAIHQVLTKDLERHAAELQAQEGLSNDGETMVNVPHIHARVYNYEPLTQLKNVRANYYGKYIALRGTVVRVSNIKPLCTKMAFLCAACGEIQSFPLPDGKYSLPTKCPVPVCRGRSFTALRSSPLTVTMDWQSIKIQELMSDDQREAGRIPRTIECELVHDLVDSCVPGDTVTITGIVKVSNAEEGSRNKNDKCMFLLYIEANSISNSKGQKTKSSEDGCKHGMLMEFSLKDLYAIQEIQAEENLFKLIVNSLCPVIFGHELVKAGLALALFGGSQKYADDKNRIPIRGDPHILVVGDPGLGKSQMLQAACNVAPRGVYVCGNTTTTSGLTVTLSKDSSSGDFALEAGALVLGDQGICGIDEFDKMGNQHQALLEAMEQQSISLAKAGVVCSLPARTSIIAAANPVGGHYNKAKTVSENLKMGSALLSRFDLVFILLDTPNEHHDHLLSEHVIAIRAGKQRTISSATVARMNSQDSNTSVLEVVSEKPLSERLKVVPGETIDPIPHQLLRKYIGYARQYVYPRLSTEAARVLQDFYLELRKQSQRLNSSPITTRQLESLIRLTEARARLELREEATKEDAEDIVEIMKYSMLGTYSDEFGNLDFERAQHGSGMSNRSTAKRFISALNNVAERTYNNIFQFHQLRQIAKELNIQVADFENFIGSLNDQGYLLKKGPKVYQLQTM	more than 300
